Assay results published in PMC2504490.

Chains of the proteins cited; added tags and fusions are not shown. Lines headed by an entry give the natural chain unless they say otherwise; changes in a name come on top.
UniProt O45346: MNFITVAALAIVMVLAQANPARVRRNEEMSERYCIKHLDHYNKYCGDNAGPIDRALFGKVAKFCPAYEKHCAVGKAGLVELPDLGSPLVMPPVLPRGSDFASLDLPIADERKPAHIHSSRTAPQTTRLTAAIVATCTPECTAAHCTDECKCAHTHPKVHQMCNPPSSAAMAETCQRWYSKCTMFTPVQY
UniProt P14585: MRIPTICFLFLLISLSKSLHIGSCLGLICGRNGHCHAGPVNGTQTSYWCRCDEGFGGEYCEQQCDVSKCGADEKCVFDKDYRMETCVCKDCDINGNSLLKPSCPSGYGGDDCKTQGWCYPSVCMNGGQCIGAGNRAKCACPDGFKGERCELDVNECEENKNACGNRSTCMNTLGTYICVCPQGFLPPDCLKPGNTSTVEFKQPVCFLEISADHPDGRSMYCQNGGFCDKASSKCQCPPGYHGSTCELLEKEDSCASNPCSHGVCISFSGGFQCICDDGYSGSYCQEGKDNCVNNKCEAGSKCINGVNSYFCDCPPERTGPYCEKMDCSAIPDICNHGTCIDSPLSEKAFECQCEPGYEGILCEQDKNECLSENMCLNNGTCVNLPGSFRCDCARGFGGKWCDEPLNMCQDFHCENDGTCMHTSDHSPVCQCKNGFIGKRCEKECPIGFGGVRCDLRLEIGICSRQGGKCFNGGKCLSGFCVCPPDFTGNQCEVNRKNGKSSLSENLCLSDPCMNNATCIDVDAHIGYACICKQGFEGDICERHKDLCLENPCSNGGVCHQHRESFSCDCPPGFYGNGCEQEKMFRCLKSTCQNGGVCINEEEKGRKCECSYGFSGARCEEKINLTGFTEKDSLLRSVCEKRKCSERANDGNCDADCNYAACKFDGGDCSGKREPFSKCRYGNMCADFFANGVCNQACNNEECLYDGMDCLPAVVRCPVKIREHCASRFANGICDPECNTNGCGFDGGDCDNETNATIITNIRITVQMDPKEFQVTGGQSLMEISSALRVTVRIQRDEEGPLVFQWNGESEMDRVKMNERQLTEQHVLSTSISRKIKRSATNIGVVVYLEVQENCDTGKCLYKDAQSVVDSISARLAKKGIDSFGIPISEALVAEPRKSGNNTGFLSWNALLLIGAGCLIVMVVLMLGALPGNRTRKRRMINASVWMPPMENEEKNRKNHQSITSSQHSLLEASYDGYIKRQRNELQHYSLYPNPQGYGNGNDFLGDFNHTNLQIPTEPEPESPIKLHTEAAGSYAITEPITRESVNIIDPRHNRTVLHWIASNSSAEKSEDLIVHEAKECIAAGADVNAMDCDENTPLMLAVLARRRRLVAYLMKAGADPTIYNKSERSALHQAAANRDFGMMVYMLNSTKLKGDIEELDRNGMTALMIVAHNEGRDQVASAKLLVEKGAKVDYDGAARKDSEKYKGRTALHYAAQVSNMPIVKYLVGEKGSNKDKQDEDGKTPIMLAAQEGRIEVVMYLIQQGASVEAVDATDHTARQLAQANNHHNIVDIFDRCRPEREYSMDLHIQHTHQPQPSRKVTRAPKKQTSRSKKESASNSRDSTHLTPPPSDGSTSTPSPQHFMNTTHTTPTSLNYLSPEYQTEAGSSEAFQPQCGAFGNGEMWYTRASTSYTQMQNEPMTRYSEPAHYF

Key:
[1] = molecular target: T1, DSL-1 (C. elegans) (UniProt O45201); assay: two-hybrid; yeast two-hybrid; ligands fused to the GAL4 DNA binding domain (DB), the first six LIN-12 EGF repeats fused to the GAL4 activation domain (AD); positive interactions indicated by blue staining
T1 sequence: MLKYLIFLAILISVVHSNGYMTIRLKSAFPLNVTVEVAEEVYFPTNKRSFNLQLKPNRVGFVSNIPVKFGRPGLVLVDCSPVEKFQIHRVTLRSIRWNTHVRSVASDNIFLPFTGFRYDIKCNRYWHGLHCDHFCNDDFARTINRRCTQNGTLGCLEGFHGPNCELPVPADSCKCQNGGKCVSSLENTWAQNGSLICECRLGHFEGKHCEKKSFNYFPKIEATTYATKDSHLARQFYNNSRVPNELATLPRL

[2] = molecular target: T2, LAG-2 extracellular domain (C. elegans) (UniProt P45442); assay: as above
T2 sequence: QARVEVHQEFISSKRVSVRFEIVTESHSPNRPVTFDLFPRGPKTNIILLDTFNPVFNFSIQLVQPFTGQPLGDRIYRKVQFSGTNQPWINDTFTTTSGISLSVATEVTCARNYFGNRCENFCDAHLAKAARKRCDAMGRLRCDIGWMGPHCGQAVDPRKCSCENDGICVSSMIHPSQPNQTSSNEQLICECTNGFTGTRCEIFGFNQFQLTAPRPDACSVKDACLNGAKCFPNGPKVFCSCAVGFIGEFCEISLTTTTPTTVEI

[3] = molecular target: T3, LIN-3 (C. elegans) (UniProt Q03345); assay: as above
T3 sequence: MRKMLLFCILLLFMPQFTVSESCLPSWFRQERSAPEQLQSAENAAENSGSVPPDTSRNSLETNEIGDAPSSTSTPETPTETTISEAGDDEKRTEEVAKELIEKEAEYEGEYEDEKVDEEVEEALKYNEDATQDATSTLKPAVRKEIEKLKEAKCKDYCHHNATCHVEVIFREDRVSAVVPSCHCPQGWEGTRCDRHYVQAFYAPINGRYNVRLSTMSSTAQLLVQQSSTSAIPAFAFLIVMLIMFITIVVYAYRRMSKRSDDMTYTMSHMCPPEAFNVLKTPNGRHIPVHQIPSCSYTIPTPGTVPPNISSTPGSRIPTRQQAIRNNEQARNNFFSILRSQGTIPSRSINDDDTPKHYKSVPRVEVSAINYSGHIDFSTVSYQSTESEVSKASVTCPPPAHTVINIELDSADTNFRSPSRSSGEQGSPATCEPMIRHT

[4] = molecular target: OSM-11 (C. elegans) (UniProt O45346); assay: as above
[5] = molecular target: T1, DSL-1 (C. elegans); assay: two-hybrid; yeast two-hybrid of OSM-11 against DSL-1 or LAG-2; which partner was fused to DB and which to AD is not told
[6] = molecular target: T2, LAG-2 extracellular domain (C. elegans); assay: as above

Substance: LIN-12 extracellular EGF repeats 1 through 6 (from UniProt P14585) (domain or fragment)
- binding [1]: binds
- binding [2]: binds
- binding [3]: no binding
- binding [4]: binds

Substance: OSM-11 (from UniProt O45346) (ligand)
- binding [5]: no binding
- binding [6]: no binding

These are yes or no findings as the source states them, for the method shown. For part of these data: Binding can be weak; no strength is given.
